According to US20030013169, “Transcription factor E2F DNA-binding domain inhibitor peptides and their use” (published 2003):

Key:
[1] = test system: Sp1 (endogenous, nuclear extract); assay: EMSA; settings: binding not inhibited by E2F peptides, protein in an extract, label: 32P fill-in
[2] = test system: ATF (endogenous, nuclear extract); assay: EMSA; settings: binding not inhibited by E2F peptides, protein in an extract, label: 32P fill-in

Sequence	binding result [1]	binding result [2]
ATGGGGCGGAGA (double strand) [Sp1 probe]	binds	
CGCCTTGAATGACGTCAAGGCCGCGA (double strand) [ATF probe]		binds

Construct, isoform or probe ends are uncertain for at least one entry. Results from cells or extracts need not show a direct contact.
